Experimental data: PubChem BioAssay AID1259254 (NCATS, 2017)

Purpose: 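Finding genes that stop cells copying their DNA twice in one cycle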 (primary screen)
Cells: human HCT116 colorectal cancer cells
Reagents: single siRNA against human genes
Duration: 3 days
Measurement: 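Nuclei stained with Hoechst and imaged; cell-cycle phase assigned by DNA content; G2 share scaled per plate, non-targeting siRNA 0%, GMNN siRNA 100%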
Scale: G2 robust z-score and G2 cells, % of GMNN control: higher = more G2 cells, more excess DNA replication
Call rule: 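An siRNA counts as active if its G2 robust z-score lies at least 5 MADs above the screen median; here such calls match roughly 38% of GMNN control or more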
This is a random part of about 59,000 reagents tested. Of all reagents, about 1,550 (2.6%) were called active. 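G2 share is only a proxy for re-replication; each gene was hit by three separate siRNAs, and active genes were retested.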 Reagents against one gene are numbered here. Further read-outs or replicates are left out here. Not given: the amount of reagent.

C17orf75 #1 → G2 robust z-score: -0.169; G2 cells, % of GMNN control: 1.78; Outcome: inactive
C17orf75 #2 → G2 robust z-score: -0.633; G2 cells, % of GMNN control: -1.48; Outcome: inactive
C17orf75 #3 → G2 robust z-score: 3.1; G2 cells, % of GMNN control: 24.8; Outcome: inactive
LINC02538 #1 → G2 robust z-score: -0.967; G2 cells, % of GMNN control: -3.84; Outcome: inactive
LINC02538 #2 → G2 robust z-score: -0.685; G2 cells, % of GMNN control: -1.85; Outcome: inactive
LINC02538 #3 → G2 robust z-score: 9.2; G2 cells, % of GMNN control: 67.7; Outcome: active
BLZF1 #1 → G2 robust z-score: 1.79; G2 cells, % of GMNN control: 15.6; Outcome: inactive
BLZF1 #2 → G2 robust z-score: 2.52; G2 cells, % of GMNN control: 20.7; Outcome: inactive
BLZF1 #3 → G2 robust z-score: 2.82; G2 cells, % of GMNN control: 22.8; Outcome: inactive
ARB2BP #1 → G2 robust z-score: -0.747; G2 cells, % of GMNN control: -2.29; Outcome: inactive
ARB2BP #2 → G2 robust z-score: 0.12; G2 cells, % of GMNN control: 3.81; Outcome: inactive
ARB2BP #3 → G2 robust z-score: -0.284; G2 cells, % of GMNN control: 0.972; Outcome: inactive
MYL12B #1 → G2 robust z-score: 3.55; G2 cells, % of GMNN control: 28; Outcome: inactive
MYL12B #2 → G2 robust z-score: 3.23; G2 cells, % of GMNN control: 25.7; Outcome: inactive
MYL12B #3 → G2 robust z-score: 0.914; G2 cells, % of GMNN control: 9.4; Outcome: inactive

Continued, starting with the last 4 of the part before.
ARB2BP #3 → G2 robust z-score: -0.284; G2 cells, % of GMNN control: 0.972; Outcome: inactive
MYL12B #1 → G2 robust z-score: 3.55; G2 cells, % of GMNN control: 28; Outcome: inactive
MYL12B #2 → G2 robust z-score: 3.23; G2 cells, % of GMNN control: 25.7; Outcome: inactive
MYL12B #3 → G2 robust z-score: 0.914; G2 cells, % of GMNN control: 9.4; Outcome: inactive
DYNC1I2 #1 → G2 robust z-score: 2.05; G2 cells, % of GMNN control: 17.4; Outcome: inactive
DYNC1I2 #2 → G2 robust z-score: 2.57; G2 cells, % of GMNN control: 21; Outcome: inactive
DYNC1I2 #3 → G2 robust z-score: -0.518; G2 cells, % of GMNN control: -0.68; Outcome: inactive
ALG12 #1 → G2 robust z-score: 0.0324; G2 cells, % of GMNN control: 3.2; Outcome: inactive
ALG12 #2 → G2 robust z-score: -0.0689; G2 cells, % of GMNN control: 2.48; Outcome: inactive
ALG12 #3 → G2 robust z-score: -0.304; G2 cells, % of GMNN control: 0.829; Outcome: inactive
RETREG3 #1 → G2 robust z-score: 0.758; G2 cells, % of GMNN control: 8.3; Outcome: inactive
RETREG3 #2 → G2 robust z-score: 1.95; G2 cells, % of GMNN control: 16.7; Outcome: inactive
RETREG3 #3 → G2 robust z-score: 1.63; G2 cells, % of GMNN control: 14.4; Outcome: inactive
NCF2 #1 → G2 robust z-score: -0.997; G2 cells, % of GMNN control: -4.05; Outcome: inactive
NCF2 #2 → G2 robust z-score: 2.27; G2 cells, % of GMNN control: 18.9; Outcome: inactive
NCF2 #3 → G2 robust z-score: 1.76; G2 cells, % of GMNN control: 15.4; Outcome: inactive
SCO1 #1 → G2 robust z-score: -0.285; G2 cells, % of GMNN control: 0.96; Outcome: inactive
SCO1 #2 → G2 robust z-score: -0.198; G2 cells, % of GMNN control: 1.57; Outcome: inactive
SCO1 #3 → G2 robust z-score: -0.298; G2 cells, % of GMNN control: 0.873; Outcome: inactive
